Source: PubChem BioAssay AID743121 (NCATS, 2013)
Here is one part, drawn at random, of about 26,000 deposited reagents. 167 of all reagents (0.63%) count as active. 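Calls are per gene from RSA p-values that are not deposited; an individual active-marked siRNA can sensitise only weakly.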 Unmarked entries are inactive. The numbers tell different reagents against one gene apart. Not all columns of the deposit are shown. No sequences are given here.

- Aim: 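Genes whose silencing strengthens cell killing by camptothecin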 (primary screen)
- System: MDA-MB-231 cells, a human breast cancer line
- Reagents: single siRNA against human genes, 20 nM siRNA (0.8 pmol per well)
- Time to read-out: 120 h (drug added 48 h after transfection, read 72 h later)
- Challenge: camptothecin 20 nM (about EC30) for 72 h; vehicle 0.1% DMSO in parallel plates
- Read-out: 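Cell viability by ATP luminescence (CellTiter-Glo) as % of non-targeting siRNA wells, and the log2 ratio of viability without drug over viability with camptothecin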
- Direction: log2 vehicle/camptothecin viability: higher = stronger sensitisation to camptothecin
- Hit rule: 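Active genes have an RSA gene-level p-value below 0.001, computed from the ratios of their separate siRNAs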

Knock-down of OR8G5 (GeneID 219865) #1 gave: log2 vehicle/camptothecin viability -0.143.
OR8G5 (GeneID 219865) #2 gave log2 vehicle/camptothecin viability -0.111.
OR8G5 (GeneID 219865) #3 showed log2 vehicle/camptothecin viability 0.828.
Against OR8G5 (GeneID 219865) #4, the values are log2 vehicle/camptothecin viability 0.299.
Against INPP5K (GeneID 51763) #1, the entry reads log2 vehicle/camptothecin viability -0.356.
INPP5K (GeneID 51763) #2 showed log2 vehicle/camptothecin viability -0.259.
For INPP5K (GeneID 51763) #3, the values are log2 vehicle/camptothecin viability 0.853.
INPP5K (GeneID 51763) #4 scored log2 vehicle/camptothecin viability -0.204.
After knock-down of IL16 (GeneID 3603) #1, the record shows log2 vehicle/camptothecin viability 0.161.
IL16 (GeneID 3603) #2 showed log2 vehicle/camptothecin viability -0.098.
Against IL16 (GeneID 3603) #3, the values are log2 vehicle/camptothecin viability -0.0413.
EZH1 (GeneID 2145) #1 showed log2 vehicle/camptothecin viability 0.13.
After knock-down of EZH1 (GeneID 2145) #2, the record shows log2 vehicle/camptothecin viability 0.3.
Silencing of EZH1 (GeneID 2145) #3 resulted in: log2 vehicle/camptothecin viability -0.266.
EZH1 (GeneID 2145) #4 gave log2 vehicle/camptothecin viability 0.0388.
Depletion of ADGRE2 (GeneID 30817) #1 resulted in: log2 vehicle/camptothecin viability -0.296.
Knock-down of ADGRE2 (GeneID 30817) #2 resulted in: log2 vehicle/camptothecin viability -0.0716.
ADGRE2 (GeneID 30817) #3 scored log2 vehicle/camptothecin viability 0.061.
After knock-down of ADGRE2 (GeneID 30817) #4, the record shows log2 vehicle/camptothecin viability -0.331.
UBE3A (GeneID 7337) #1 gave log2 vehicle/camptothecin viability 0.328.
Knock-down of UBE3A (GeneID 7337) #2 gave: log2 vehicle/camptothecin viability 0.0161.
Against UBE3A (GeneID 7337) #3, the values are log2 vehicle/camptothecin viability -0.198.
With knock-down of UBE3A (GeneID 7337) #4 the results were log2 vehicle/camptothecin viability 0.0577.
CETN1 (GeneID 1068) #1 gave log2 vehicle/camptothecin viability -0.436.
Depletion of CETN1 (GeneID 1068) #2 gave: log2 vehicle/camptothecin viability -0.303.
CETN1 (GeneID 1068) #3 showed log2 vehicle/camptothecin viability -0.0842.
Against RORB (GeneID 6096) #1 the deposit lists log2 vehicle/camptothecin viability -0.0704.
RORB (GeneID 6096) #2 gave log2 vehicle/camptothecin viability -0.11.
Against RORB (GeneID 6096) #3, the values are log2 vehicle/camptothecin viability -0.0437.
With knock-down of RORB (GeneID 6096) #4, the record shows log2 vehicle/camptothecin viability 0.0986.
After knock-down of RAD52 (GeneID 5893) #1, the screen gave log2 vehicle/camptothecin viability -0.222.
Against RAD52 (GeneID 5893) #2, the entry reads log2 vehicle/camptothecin viability -0.0607.
After knock-down of RAD52 (GeneID 5893) #3, the record shows log2 vehicle/camptothecin viability 0.217.
HABP2 (GeneID 3026) #1 gave log2 vehicle/camptothecin viability -0.187.
For HABP2 (GeneID 3026) #2 the deposit lists log2 vehicle/camptothecin viability 0.511.
HABP2 (GeneID 3026) #3 gave log2 vehicle/camptothecin viability -0.242.
Against HABP2 (GeneID 3026) #4, the entry reads log2 vehicle/camptothecin viability -0.0901.

An excerpt of the results above, as a working copy:
UBE3A (GeneID 7337) #2 — log2 vehicle/camptothecin viability: 0.0161
UBE3A (GeneID 7337) #3 — log2 vehicle/camptothecin viability: -0.198
UBE3A (GeneID 7337) #4 — log2 vehicle/camptothecin viability: 0.0577
CETN1 (GeneID 1068) #1 — log2 vehicle/camptothecin viability: -0.436
